Source: patent US20220033483A1 (GUAGNDONG FEIPENG BIOLOGICAL, published 2022)
Numbering of substitutions follows the chain as printed. These are yes or no findings as the source states them, for the method shown. Some entries that bind do so weakly or less than the wild type.

B1: Mutation 1 (antibody, V domains shown)
VH: QVQLQQSGTELAKPGASVKFSCKASGYTFSTYWMYWIKQRPGQGLEWIGYLNPSSGHTDYNQRFKDKATLTADKSSSTAYMQLNSLTSEDSAVYYCARKYFGPFGMDYWGQGTSVTVSS
VL: EIFLTQSPAIMSASPGEKVTMTCSASTTVSYVHWYQQKSGTSPKRWLYDTSKIASGIPVRFSGSGSGTSYSLTISSMEAEDAATYYCQQWSTQPYTFGGGTKLEIKR
notes: other CDR sites as WT
B2: WT 1-4 (antibody, V domains shown)
VH: B1 VH with G26D, L51I, D59E, F101Y, G105A
VL: B1 VL with V32A, T50S, Q89N, Q93N
B3: WT 1-1 (antibody, V domains shown)
VH: B1 VH with G26D, L51I, S55T, D59E, R63K, K99R, F101Y, G105A
VL: B1 VL with T27S, T28S, V32A, L47I, T50S, Q89N, Q93N
B4: WT 1-2 (antibody, V domains shown)
VH: B1 VH with G26D, S30T, T31S, L51I, D59E, K99R, F101W, G105A
VL: B1 VL with T27S, V32A, T50S, I53L, Q89N, T92S
B5: WT 1-3 (antibody, V domains shown)
VH: B1 VH with G26D, S30T, L51I, S55T, D59E, R63K, G105A
VL: B1 VL with T28S, V32A, L47I, T50S, I53L, Q89N, T92S, Q93N
B6: WT 1-5 (antibody, V domains shown)
VH: B1 VH with G26D, T31S, S55T, D59E, R63K, F101W, G105A
VL: B1 VL with T27S, T28S, V32A, L47I, T50S, Q89N, Q93N
B7: WT 1-6 (antibody, V domains shown)
VH: B1 VH with G26D, S30T, T31S, D59E, K99R, G105A
VL: B1 VL with T27S, V32A, T50S, I53L, Q89N, Q93N
B8: WT 1-7 (antibody, V domains shown)
VH: B1 VH with G26D, S30T, S55T, D59E, R63K, K99R, F101Y, G105A
VL: B1 VL with T28S, V32A, L47I, T50S, I53L, Q89N, Q93N
B9: WT 1-8 (antibody, V domains shown)
VH: B1 VH with G26D, L51I, S55T, D59E, R63K, K99R, F101W, G105A
VL: B1 VL with V32A, T50S, Q89N

biological target: cTnI quality control product recombinant protein (human) (UniProt P19429); test: capture ELISA and AMC biosensor

binding, binds:
B1

biological target: cTnI quality control product recombinant protein (human) (UniProt P19429); test: AMC biosensor

binding, binds:
B2, B3, B4, B5, B6, B7, B8, B9
